Consider 24 molecules from PubChem BioAssay AID248 (DTP/NCI, 2004).

The list shows only some results of the screen, not a fair sample: it gathers tests that were run many times, whatever their T/C, doses with no T/C, and many T/C values between a quarter and a half above the control. Further doses and runs are listed elsewhere. T/C: endpoint of the treated group in % of that of the vehicle group. Some doses have a count of surviving animals in place of a T/C: the source holds a T/C of zero for them, seemingly a mark for toxic or unscored doses. Some survivor counts are full or nearly so, which does not show that the dose was tolerated: the source hardly ever lists a survival T/C far under the control, and the zero likely stands for such cases as well. Survivors were counted at the toxicity check, usually on the fifth day, unless a day is given; later deaths do not show. Schedule codes are those of the source, taken here to give the interval after Q, in days (D) or hours (H), and the number of doses after X. Some schedule codes hold Z or #, which are not explained here. Where survival is the endpoint, this PubChem deposit counts one and a half times the control or more as active, and values a quarter to a half above the control carry no call in these data; other NCI protocols may use other cut-offs.

The assay relates to L1210 leukemia ip in BDF1 mice, survival T/C. In words: NCI In Vivo Anticancer Drug Screen. Data for tumor model L1210 Leukemia (intraperitoneal) in B6D2F1 (BDF1) mice. Particulars: T/C endpoint: mean survival time, higher T/C = longer survival.
[1] abbreviates: dose: 50.0 mg/kg/injection, schedule: Q01DX009 (ip), vehicle: Klucel (hydroxypropylcellulose) (HPC).
Setting [2] is: dose: 200.0 mg/kg/injection, schedule: Q01DX009 (ip), vehicle: Klucel (hydroxypropylcellulose) (HPC).
The mark [3] stands for this setting: dose: 400.0 mg/kg/injection, schedule: Q01DX009 (ip), vehicle: Klucel (hydroxypropylcellulose) (HPC).
The mark [4] stands for this setting: dose: 200.0 mg/kg/injection, schedule: Q01DX001 (ip), vehicle: saline.
Where [5] appears, read: dose: 400.0 mg/kg/injection, schedule: Q01DX001 (ip), vehicle: saline.
Where [6] appears, read: dose: 400.0 mg/kg/injection, schedule: Q04DX003 (ip), vehicle: saline with Tween-80.
Where [7] appears, read: dose: 200.0 mg/kg/injection, schedule: Q04DX003 (ip), vehicle: saline with Tween-80.
Setting [8] is: dose: 100.0 mg/kg/injection, schedule: Q04DX002 (ip), vehicle: Klucel (hydroxypropylcellulose) (HPC).
Where [9] appears, read: dose: 200.0 mg/kg/injection, schedule: Q04DX002 (ip), vehicle: Klucel (hydroxypropylcellulose) (HPC).
[10] abbreviates: dose: 400.0 mg/kg/injection, schedule: Q04DX002 (ip), vehicle: Klucel (hydroxypropylcellulose) (HPC).
[11] abbreviates: dose: 200.0 mg/kg/injection, schedule: Q01DX009 (ip), vehicle: saline with Tween-80.
Where [12] appears, read: dose: 400.0 mg/kg/injection, schedule: Q04DX003 (ip), vehicle: saline.

In the case of `Cc1ccc(Cl)cc1NC(=O)Nc1ccccc1`, the survivor count (dose: 6.0 mg/kg/injection, schedule: Q01DX009 (ip), vehicle: Klucel (hydroxypropylcellulose) (HPC)) is 6 of 6; the survivor count (dose: 12.0 mg/kg/injection, schedule: Q01DX009 (ip), vehicle: Klucel (hydroxypropylcellulose) (HPC)) is recorded as 6 of 6; the survivor count (dose: 12.5 mg/kg/injection, schedule: Q01DX009 (ip), vehicle: Klucel (hydroxypropylcellulose) (HPC)) is 6 of 6; the survivor count (dose: 25.0 mg/kg/injection, schedule: Q01DX009 (ip), vehicle: Klucel (hydroxypropylcellulose) (HPC)) is on record as 6 of 6; the survivor count under setting [1] is 6 of 6; the survivor count (dose: 100.0 mg/kg/injection, schedule: Q01DX009 (ip), vehicle: Klucel (hydroxypropylcellulose) (HPC)) is reported as 6 of 6. Moreover, the survivor count under setting [2] is given as 6 of 6 and the survivor count under setting [3] was 6 of 6.
For `CCC1(Cc2ccccc2)C(=O)NC(=S)N(C)C1=O` (configuration not stated), the survivor count by setting is: (dose: 150.0 mg/kg/injection, schedule: Q01DX001 (ip), vehicle: saline) 1 of 6; (dose: 300.0 mg/kg/injection, schedule: Q01DX001 (ip), vehicle: saline) 0 of 6.
As to `c1ccc([P+](Cc2ccc3c(c2)OCO3)(c2ccccc2)c2ccccc2)cc1`, the survivor count reads like this: (dose: 25.0 mg/kg/injection, schedule: Q01DX009 (ip), vehicle: saline) 5 of 6; (dose: 50.0 mg/kg/injection, schedule: Q01DX009 (ip), vehicle: saline) 0 of 6; (dose: 100.0 mg/kg/injection, schedule: Q01DX001 (ip), vehicle: saline) 1 of 6; under setting [4], 0 of 6; under setting [5], 0 of 6.
Turning to `Oc1ccc(C=NCC2CCCC[N-]2)c(O)c1.Oc1ccc(C=NCC2CCCC[N-]2)c(O)c1.[Ni+2]` (configuration not stated), the survivor count under setting [6] is 6 of 6.
As to `O=c1[nH]cncc1F`, where the note is “dose: 264.0 mg/kg/injection, schedule: Q01DX001 (ip), vehicle: saline”, the T/C is 142 % of control. The survivor count (dose: 600.0 mg/kg/injection, schedule: Q01DX001 (ip), vehicle: saline) is 6 of 6.
For `CCCCCCCNC`, the survivor count (dose: 400.0 mg/kg/injection, schedule: Q01DX001 (ip), vehicle: carboxymethylcellulose (CMC)) is 2 of 4.
Turning to `O=C(Nc1cccc(F)c1)Nc1nccs1`, the survivor count by setting is: under setting [2], 1 of 6; under setting [3], 0 of 6.
For `COP(S)(=N/N=C/c1ccccn1)OC`, the survivor count (dose: 50.0 mg/kg/injection, schedule: Q04DX003 (ip), vehicle: saline with Tween-80) is reported as 0 of 6; the survivor count (dose: 100.0 mg/kg/injection, schedule: Q04DX003 (ip), vehicle: saline with Tween-80) is listed as 0 of 6; the survivor count under setting [7] was 0 of 6; the survivor count under setting [6] is recorded as 0 of 6.
As for `O=C(CCCC(=O)NNC(=S)NC1CCCCC1)NNC(=S)NC1CCCCC1`, under setting [5], the survivor count is recorded as 2 of 4.
For the molecule `COc1cc2c(cc1OC)C1(NCC2)C(=O)Nc2c(C)cc(Cl)cc21` (configuration not stated), under “dose: 200.0 mg/kg/injection, schedule: Q04DX002 (ip), vehicle: saline”, the T/C was 135 % of control.
For `CNCCCN1c2ccccc2C(C)(C)c2ccccc21`, the survivor count is recorded as 2 of 4 under setting [4] and 0 of 4 under setting [5].
On to `Clc1ccc2c(c1)/C(=C\c1ccnc3ccccc13)c1cc(Cl)cc(Cl)c1-2`, for which the survivor count under setting [3] was 2 of 6.
As for `O=C(O)C12CCC(CC1)C1CCC2CC1`, the survivor count runs as follows: under setting [8], 1 of 3; under setting [9], 0 of 3; under setting [10], 0 of 3.
For the molecule `CCCCCCCCCCCCCC(=O)CC`, under setting [11], the T/C was 129 % of control.
Consider `CCC(=O)C(CCN1CCC(n2c(=O)[nH]c3ccccc32)CC1)(c1ccccc1)c1ccccc1`, for which the survivor count is 2 of 6 (dose: 1.56 mg/kg/injection, schedule: Q01DX009 (ip), vehicle: saline with Tween-80); 3 of 6 (dose: 3.13 mg/kg/injection, schedule: Q01DX009 (ip), vehicle: saline with Tween-80); 1 of 6 (dose: 12.5 mg/kg/injection, schedule: Q01DX009 (ip), vehicle: saline with Tween-80); 2 of 6 (dose: 25.0 mg/kg/injection, schedule: Q01DX009 (ip), vehicle: saline with Tween-80); 6 of 6 under setting [11]; 3 of 6 (dose: 400.0 mg/kg/injection, schedule: Q01DX009 (ip), vehicle: saline with Tween-80).
Regarding `O=c1[nH]cnc2nccnc12`, the survivor count under setting [12] is 1 of 6 and the survivor count (dose: 600.0 mg/kg/injection, schedule: Q04DX003 (ip), vehicle: saline) was 1 of 6.
As for `CCCC(NC(=O)CCl)C(=O)O` (configuration not stated), the survivor count under setting [12] was 2 of 6.
Regarding `COc1ccc(/C=C/c2cccc[n+]2C)cc1`, the survivor count under setting [1] is 6 of 6; the survivor count (dose: 100.0 mg/kg/injection, schedule: Q04DX003 (ip), vehicle: Klucel (hydroxypropylcellulose) (HPC)) is 2 of 6; the survivor count (dose: 200.0 mg/kg/injection, schedule: Q04DX003 (ip), vehicle: Klucel (hydroxypropylcellulose) (HPC)) is recorded as 0 of 6; the survivor count (dose: 400.0 mg/kg/injection, schedule: Q04DX003 (ip), vehicle: Klucel (hydroxypropylcellulose) (HPC)) was 0 of 6.
For the molecule `CCCCCCCNC(CC(C)C)C(=O)OCC` (configuration not stated), the survivor count reads like this: under setting [8], 1 of 3; under setting [9], 1 of 3; under setting [10], 0 of 3.
Turning to `Ic1cccc2cc3cccc[n+]3cc12`, under “dose: 33.0 mg/kg/injection, schedule: Q01DX Z (ip), vehicle: carboxymethylcellulose (CMC)”, the survivor count is listed as 5 of 6.
Turning to `N=C(CCCc1ccccc1)SCc1ccccc1`, the survivor count under setting [11] was 0 of 6; the survivor count under setting [7] is reported as 5 of 6; the survivor count (dose: 400.0 mg/kg/injection, schedule: Q01DX001 (ip), vehicle: saline with Tween-80) was 1 of 6.
For `OCCNCCc1ccccc1`, the survivor count (dose: 300.0 mg/kg/injection, schedule: Q01DX009 (ip), vehicle: carboxymethylcellulose (CMC)) is reported as 0 of 6.
Regarding `O=C(O)C(F)(F)C(F)(Cl)C(F)(F)C(F)(Cl)C(F)(F)C(F)(Cl)C(F)(F)Cl` (configuration not stated), the survivor count under setting [5] is on record as 0 of 6.
As for `O=C(O)C1c2ccccc2Cc2ccccc21`, the survivor count under setting [3] is 2 of 6.
